# Data published in article PMC7819943, “Rice protein-binding microarrays: a tool to detect cis-acting elements near promoter regions in rice”.
# The chains behind the UniProt entries cited, without tags or fusion partners.
# UniProt Q0JBA9, entry or part of it: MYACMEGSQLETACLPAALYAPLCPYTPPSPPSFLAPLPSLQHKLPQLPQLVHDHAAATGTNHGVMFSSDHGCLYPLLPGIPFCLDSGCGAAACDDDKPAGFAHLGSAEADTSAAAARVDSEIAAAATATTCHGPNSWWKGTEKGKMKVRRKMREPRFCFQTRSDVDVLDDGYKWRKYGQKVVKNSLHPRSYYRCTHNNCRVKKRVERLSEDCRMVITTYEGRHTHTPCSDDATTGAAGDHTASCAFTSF
# Some of the results follow.
# Target: OsWRKY34 (Oryza sativa, UniProt Q0JBA9 1-250)
# Assay: protein-binding microarray (RPBM); PBS, 2% BSA, 51.3 ng/ul salmon testes DNA, 50 uM zinc acetate, 200 nM TF, 25 C, 1 h; high values mean tight binding
# Conditions: protein: recombinant; tags: N-terminal polyhistidine and DsRed monomer fusion (pET32a); label: CyDye5-dUTP incorporated in the synthesized complementary strand; 3' TTTTT single-stranded linker to array surface; dsDNA, one strand shown
# Procedure, shortened: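 The binding signal is fluorescence intensity per array feature (arbitrary units). Readings came from an Axon 4000B scanner after a washed, 2% BSA-blocked, double-stranded custom Agilent array had been incubated for 1 h at 25 °C with 200 nM protein and 50 µM zinc acetate. The protein was a Ni–NTA-purified transcription factor fused N-terminally to polyhistidine and DsRed, expressed in E. coli BL21-CodonPlus.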
row,Sequence,binding signal
1,ATTTTGTGGGGTCAAGGTCGTCTCCGCTGCAATGGCGGTCCGGAGTCACCTAGTGCAG,9470 fluorescence intensity (a.u.)
2,GAACGGTTCAGTTATTCAGTTCTCGTTTTGGGGTGCGTGCCGGAGTCACCTAGTGCAG,8070 fluorescence intensity (a.u.)
3,TCCACTCCACCACCACCACCAACATCGCACAGTCAGTCACCGGAGTCACCTAGTGCAG,10800 fluorescence intensity (a.u.)
4,TGCACCGGTGCAAGTGTGGGAGGGGTGTTGTACGTCGCTACGGAGTCACCTAGTGCAG,10400 fluorescence intensity (a.u.)
5,ACCGGCAGGGCAACTTCGGTCAGACCGCGATCCGTCGATTCGGAGTCACCTAGTGCAG,8600 fluorescence intensity (a.u.)
6,CCATGGATTTCACTCTATATCCTGTTCTCTTTAATCATTCCGGAGTCACCTAGTGCAG,10200 fluorescence intensity (a.u.)
7,ATCCTTGTTAGTTACATGCATGTGTATAGTTTATTAATTTCGGAGTCACCTAGTGCAG,10700 fluorescence intensity (a.u.)
8,GATGGTGTGTTTTTATTTTCCTTTTTGTTTTCTTGATTATCGGAGTCACCTAGTGCAG,10300 fluorescence intensity (a.u.)
9,TGCTCTCTGCTGCTGTTGTGCAGTCCAGTCAAGAACCGACCGGAGTCACCTAGTGCAG,8140 fluorescence intensity (a.u.)
10,TAGTTATGATTCGGTTACTTTTTTTTAGTTTTGAACCTTTCGGAGTCACCTAGTGCAG,8510 fluorescence intensity (a.u.)
11,CTGTTGTTCGACGCTTGGAGCTCCTCGTGCTCACGTTTCACGGAGTCACCTAGTGCAG,8030 fluorescence intensity (a.u.)
12,GCCTCTTCTGATCTTCTCCTCTGTATTATGGTGCTTTCACCGGAGTCACCTAGTGCAG,16100 fluorescence intensity (a.u.)
13,CTCAGATAATTGCCTTCCATGTGTTGTTTTGTTAGATGTGCGGAGTCACCTAGTGCAG,8650 fluorescence intensity (a.u.)
14,CCCCGCTGCTGTTCGTGTGGCAAGATTTGCTGCCACTGTTCGGAGTCACCTAGTGCAG,9630 fluorescence intensity (a.u.)
15,CGGCGCGGCGGAAGGAGGAGGGGTGGTGGATTCGTAGGGGCGGAGTCACCTAGTGCAG,14600 fluorescence intensity (a.u.)
16,CCACCACATATTTTCACCGCTTCTCATTTTTCCCTTCGCTCGGAGTCACCTAGTGCAG,11100 fluorescence intensity (a.u.)
17,CTCACATCGCATCATCGACATCTCTTCTCAGCAGCAGCCACGGAGTCACCTAGTGCAG,10900 fluorescence intensity (a.u.)
18,AGGACCATGGATTAGATTTTGATCACTTACTTTTAAGAGTCGGAGTCACCTAGTGCAG,8240 fluorescence intensity (a.u.)
19,CCCTTTCCCCGCCGCCGCCATCACGTGGTCCTTGAGGAACCGGAGTCACCTAGTGCAG,10100 fluorescence intensity (a.u.)
20,TCTTCCCGGACTGTTAGTTGTTACTTTAGAAAATGTTTTACGGAGTCACCTAGTGCAG,12000 fluorescence intensity (a.u.)
21,GACCGCTCTCTCCGTTTTCCTCCTTTCTTGCGACTTCCACCGGAGTCACCTAGTGCAG,11900 fluorescence intensity (a.u.)

# As a short view, some entries already given.
row,Sequence,binding signal
12,GCCTCTTCTGATCTTCTCCTCTGTATTATGGTGCTTTCACCGGAGTCACCTAGTGCAG,16100 fluorescence intensity (a.u.)
13,CTCAGATAATTGCCTTCCATGTGTTGTTTTGTTAGATGTGCGGAGTCACCTAGTGCAG,8650 fluorescence intensity (a.u.)
14,CCCCGCTGCTGTTCGTGTGGCAAGATTTGCTGCCACTGTTCGGAGTCACCTAGTGCAG,9630 fluorescence intensity (a.u.)

# Further entries

row,Sequence,binding signal
1,GTTCATCCGTCAGTGGCCCCTCTTCCTTTTCCATTATCATCGGAGTCACCTAGTGCAG,8880 fluorescence intensity (a.u.)
2,GCAAACAAAGGAGAATGACCCGATTACCTTTTTATTCTCTCGGAGTCACCTAGTGCAG,8350 fluorescence intensity (a.u.)
3,GGGAGGGAGACGAGAAAAGGTGTTGACGTGCCGTCATCCACGGAGTCACCTAGTGCAG,10700 fluorescence intensity (a.u.)
4,GTTCCACATCTTAATAGCAGTCATTTAGATGTACTTTTGACGGAGTCACCTAGTGCAG,8160 fluorescence intensity (a.u.)
5,CGTCTGACTTCGCGTCACTCCCTGCTCTAGGCGACTCCGCCGGAGTCACCTAGTGCAG,9420 fluorescence intensity (a.u.)
6,AAAATCAATGATTAGCTGAGCCCAGATCCCAACTTTTTCTCGGAGTCACCTAGTGCAG,8130 fluorescence intensity (a.u.)
7,TCTCCAGGATAAATTTACGCATATAATTTTTGTTTCTTTTCGGAGTCACCTAGTGCAG,10500 fluorescence intensity (a.u.)
8,GTATTATTCTGATTTCAAATTACCCGATCTTACATAACATCGGAGTCACCTAGTGCAG,8120 fluorescence intensity (a.u.)
9,TCTTATATTCGAAGGAAGTTATCGATCTTTTTGTTTGACCCGGAGTCACCTAGTGCAG,8740 fluorescence intensity (a.u.)
10,CTGTATCCTGTTTTGTTTTCTCTATATTTATTATTTTTGTCGGAGTCACCTAGTGCAG,11100 fluorescence intensity (a.u.)
11,CGACGCAACACCACACTACTCTTCTCGTCTCGTCTCCCTCCGGAGTCACCTAGTGCAG,14600 fluorescence intensity (a.u.)
12,TTTACTCGAACACCACTGGTTCTTGTGCTAATCACATCTACGGAGTCACCTAGTGCAG,8370 fluorescence intensity (a.u.)
13,CACTATAACTGCCATGCCACCTGTGCATATTATGTTGTCGCGGAGTCACCTAGTGCAG,11400 fluorescence intensity (a.u.)
14,CTCTTGTTGTGTATCTGCATTTCTTCCCTAGTGATACTAGCGGAGTCACCTAGTGCAG,13800 fluorescence intensity (a.u.)
15,ACTGTATTGGTCTCGAGTACTTTTTGGAGGATATCTAGCTCGGAGTCACCTAGTGCAG,9500 fluorescence intensity (a.u.)
16,CCGCTACAACACTCAACACCATACCACATGTCATCTCCGTCGGAGTCACCTAGTGCAG,8060 fluorescence intensity (a.u.)
17,AGTATATACTAGTAATATCTACGGGCCTGTTCACTTTAATCGGAGTCACCTAGTGCAG,8370 fluorescence intensity (a.u.)
18,TGCTTGACGATTCATCGATGTCCTTGTACCGTGCCTTCGGCGGAGTCACCTAGTGCAG,8400 fluorescence intensity (a.u.)
19,AGCATCCTACCGATTTCCGGTCATTTTTCTCCTACGACATCGGAGTCACCTAGTGCAG,9210 fluorescence intensity (a.u.)
20,CAAGAGAGTGGGTACGGGGCCCTCAAAATTGCAGGGGCGGCGGAGTCACCTAGTGCAG,8460 fluorescence intensity (a.u.)
21,TCTTCGTCCGTCACTCGTGGCACGCAGTTTTAACCCTAGGCGGAGTCACCTAGTGCAG,8450 fluorescence intensity (a.u.)

# Retrieved one by one from the entries so far:
row,Sequence,binding signal
12,TTTACTCGAACACCACTGGTTCTTGTGCTAATCACATCTACGGAGTCACCTAGTGCAG,8370 fluorescence intensity (a.u.)
18,TGCTTGACGATTCATCGATGTCCTTGTACCGTGCCTTCGGCGGAGTCACCTAGTGCAG,8400 fluorescence intensity (a.u.)

# Further records follow.

row,Sequence,binding signal
1,TTTTCGCTTTAAATTTGTTCCAATATTTATCTACCGTTCCCGGAGTCACCTAGTGCAG,8940 fluorescence intensity (a.u.)
2,GTTATTAGTCTACGTTTAATACTTCAAATGTGTGTCCTTACGGAGTCACCTAGTGCAG,8640 fluorescence intensity (a.u.)
3,CGGGGATCCGCTCCGCCGTCTCGCCTCCCGCCCCGTGGATCGGAGTCACCTAGTGCAG,8950 fluorescence intensity (a.u.)
4,ATCTGAATCGTCCATTATCCATCATTCATTTATCATCTACCGGAGTCACCTAGTGCAG,8390 fluorescence intensity (a.u.)
5,CGCTGATGCGCGTGTGATGATTGCTGTGGTTTTATTCTCCCGGAGTCACCTAGTGCAG,9730 fluorescence intensity (a.u.)
6,CACACTTTTCTTCTGTACCATTTCGCCGAGCTTTACCCCGCGGAGTCACCTAGTGCAG,9010 fluorescence intensity (a.u.)
7,CCGCCCAGTGGTTGTGCAATCGGGGTTGTTGGGGCAGCATCGGAGTCACCTAGTGCAG,12200 fluorescence intensity (a.u.)
8,CAGTTTTCCTTGGTTCATTCTACGATACTTGCTAATTAATCGGAGTCACCTAGTGCAG,9430 fluorescence intensity (a.u.)
9,CCTTTTTCAACTCCACATTCACTTCTTTTCGGCCATGCTGCGGAGTCACCTAGTGCAG,10100 fluorescence intensity (a.u.)
10,AGTAGTGATCACCTCTGCGCTCTTGTCGTCCTCACCGCCACGGAGTCACCTAGTGCAG,9600 fluorescence intensity (a.u.)
11,GACGGTTTGGTACTTCGATCTGATTATTGCATTCTCTCGTCGGAGTCACCTAGTGCAG,8100 fluorescence intensity (a.u.)
12,TTTCTCTCCTACGTACACGCACGCGCGGTAACGAGTTAACCGGAGTCACCTAGTGCAG,8350 fluorescence intensity (a.u.)
13,ATCTCATCTCATCGACCACACCTGCATCATCAATCTGCCTCGGAGTCACCTAGTGCAG,10800 fluorescence intensity (a.u.)
14,GCTGCACGTCGTTGGAGTACTTCCTAATCCCAACTGTTACCGGAGTCACCTAGTGCAG,12300 fluorescence intensity (a.u.)
15,GCACGGACATGCGAGGCCCACATATATTTCTTCTCGCCTACGGAGTCACCTAGTGCAG,9610 fluorescence intensity (a.u.)
16,GTAGCATGCTTCTATCCTGTCCCGGTGTTTGTCGTACATTCGGAGTCACCTAGTGCAG,10200 fluorescence intensity (a.u.)
17,TATCCCACGTACAAGCATCACCGGCCTTATTTTATTGTTTCGGAGTCACCTAGTGCAG,8800 fluorescence intensity (a.u.)
18,AGTTTCTGTTGTTGAGGAGAGTGGCTAGGAAATATTAACACGGAGTCACCTAGTGCAG,8810 fluorescence intensity (a.u.)
19,TCACGGGTGAACACGATCCCCTGATAACTTCCATCCAGTCCGGAGTCACCTAGTGCAG,8600 fluorescence intensity (a.u.)
20,CTCGTTGGTTTGCAGCTTTACATCGCTTTTTGTATAATTACGGAGTCACCTAGTGCAG,9490 fluorescence intensity (a.u.)
21,TACTTTTTTCATCTGGGTCCCTTGCCGCCCTCTATTGGGGCGGAGTCACCTAGTGCAG,10400 fluorescence intensity (a.u.)

row,Sequence,binding signal
1,TCCAAATATTAATCCCACACAAATTAAAATCCAATCCATTCGGAGTCACCTAGTGCAG,8160 fluorescence intensity (a.u.)
2,TGCCATTGTGCCTTTCTGCGTGCTCACTACTAGCCAGTGCCGGAGTCACCTAGTGCAG,10600 fluorescence intensity (a.u.)
3,GAATTTGACACCACCACCATTATGTGGGTCCCCGCAAATACGGAGTCACCTAGTGCAG,8250 fluorescence intensity (a.u.)
4,TTGTGACATTTTGATGCACCTTATGGTCACGCGCGTATTCCGGAGTCACCTAGTGCAG,12500 fluorescence intensity (a.u.)
5,AGGGTGTCGTATGGGGTGTTCGGGCACTAATAAAAAAACTCGGAGTCACCTAGTGCAG,9220 fluorescence intensity (a.u.)
6,ACCGAGGTGGGAGGTGGGTTTTGGGCCTTGGTAAGGAGGGCGGAGTCACCTAGTGCAG,13500 fluorescence intensity (a.u.)
7,GCATCCATCGGAATTCTCGTCGACCACCGCAACCGCCATGCGGAGTCACCTAGTGCAG,8580 fluorescence intensity (a.u.)
8,AGAAATGGTGGGGTTCTTCAGCCTCTGTTCTTCCACTCATCGGAGTCACCTAGTGCAG,8030 fluorescence intensity (a.u.)
9,GTTGGTTGGTTGCAACGGCGTGGGATATTGGTAGGCTGGTCGGAGTCACCTAGTGCAG,11800 fluorescence intensity (a.u.)
10,CGATTCGCGCCGCCGAGAGTTCTGTGTCTCTCTCTTCTTCCGGAGTCACCTAGTGCAG,10300 fluorescence intensity (a.u.)
11,GCTTGCTTGGTTGGTTGGTGGAGCTTGGGAGTTGAGGTCACGGAGTCACCTAGTGCAG,11500 fluorescence intensity (a.u.)
12,ATTAGTCCATGCCATGTGGGCCCTGTGTGTTTGGGTGCTGCGGAGTCACCTAGTGCAG,9830 fluorescence intensity (a.u.)
13,CGTCGCTTCTCTTCTTGAAGACGTTGTTTTGGCATCCTATCGGAGTCACCTAGTGCAG,8040 fluorescence intensity (a.u.)
14,ACAAGTCACTCACTGCTTCACTGCATTCAGTTTACTCTTCCGGAGTCACCTAGTGCAG,11300 fluorescence intensity (a.u.)
15,TGCTGCTGCTGCTACTAGTCTTTATCCTTTGCTTTCCACTCGGAGTCACCTAGTGCAG,9860 fluorescence intensity (a.u.)
16,CTATTTTGCTTCCCTGGTTGTCGTGCCCGTCGTGCTGAGGCGGAGTCACCTAGTGCAG,8380 fluorescence intensity (a.u.)
17,CCATTTCCTTATCCAGTTATCTGGTACTCCTACCTGCTTACGGAGTCACCTAGTGCAG,9100 fluorescence intensity (a.u.)
18,CGCATCCACCGCCCGCGCGCGCACCAAACCGAGCTCCGATCGGAGTCACCTAGTGCAG,8430 fluorescence intensity (a.u.)
19,AGGGATGAGGCTATTAAGTGTTTTGTTTGGTTGGGAGACACGGAGTCACCTAGTGCAG,9550 fluorescence intensity (a.u.)
20,ATTGGAGTGGGGCTCTTTCTTCTTTCGTTTCTATTCATGTCGGAGTCACCTAGTGCAG,11300 fluorescence intensity (a.u.)
21,ATAACTGATTAGTGGTTGTTTAGTAGCTGTTGGGGTTTACCGGAGTCACCTAGTGCAG,11000 fluorescence intensity (a.u.)
